Experimental data from PubChem BioAssay AID192 (DTP/NCI, 2004).
The list is a part of this screen's results and no random one: it covers a few groups of compounds. Other doses and runs of a compound may be missing. T/C: endpoint of the treated group in % of that of the vehicle group. Some doses have a count of surviving animals in place of a T/C: the source holds a T/C of zero for them, seemingly a mark for toxic or unscored doses. Some doses without a T/C left all or most animals alive at the check, yet need not have been tolerated: survival well below the control is almost never listed, so the zero probably covers shortened survival too. Survivors were counted at the toxicity check, usually on the fifth day, unless a day is given; later deaths do not show. Schedules are NCI's codes, read here as Q, the interval in days (D) or hours (H), X, the number of doses. Where survival is the endpoint, this PubChem deposit counts one and a half times the control or more as active, and values a quarter to a half above the control carry no call in these data; other NCI protocols may use other cut-offs. Some T/C values carry the count of animals alive at the toxicity check (mostly the fifth day); without a count or a note in brackets, all were alive then. Some entries were tested several times; their values stand side by side, smallest first.

Test system: BDF1 mice, B16 melanoma ip, median survival T/C
Experiment: NCI In Vivo Anticancer Drug Screen. Data for tumor model B16 Melanoma (intraperitoneal) in B6D2F1 (BDF1) mice
Conditions: T/C endpoint: median survival time, higher T/C = longer survival
How it was run: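 Antitumor activity is assessed in mice bearing a transplanted tumor, with survival or tumor size compared against vehicle-dosed controls and expressed as T/C.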

[1] = dose: 12.5 mg/kg/injection, schedule: Q01DX009 (ip), vehicle: saline
[2] = dose: 25.0 mg/kg/injection, schedule: Q01DX009 (ip), vehicle: saline
[3] = dose: 50.0 mg/kg/injection, schedule: Q01DX009 (ip), vehicle: saline
[4] = dose: 50.0 mg/kg/injection, schedule: Q04DX003 (ip), vehicle: saline
[5] = dose: 50.0 mg/kg/injection, schedule: Q08DX002 (ip), vehicle: saline
[6] = dose: 100.0 mg/kg/injection, schedule: Q01DX001 (ip), vehicle: saline

NNC(=O)c1cc([N+](=O)[O-])cc([N+](=O)[O-])c1 was tested, and the T/C (dose: 5.0 mg/kg/injection, schedule: Q01DX009 (ip), vehicle: saline with Tween-80) was 106 % of control, the T/C (dose: 10.0 mg/kg/injection, schedule: Q01DX009 (ip), vehicle: saline with Tween-80) was 104 % of control and the T/C (dose: 20.0 mg/kg/injection, schedule: Q01DX009 (ip), vehicle: saline with Tween-80) was 102 % of control.
For NC1CCCCC1.O=P(O)(N(CCCl)CCCl)N1CC1, the T/C (dose: 0.8 mg/kg/injection, schedule: Q01DX009 (ip), vehicle: saline) was 91 % of control, the T/C (dose: 1.6 mg/kg/injection, schedule: Q01DX009 (ip), vehicle: saline) was 108 % of control and the T/C (dose: 3.12 mg/kg/injection, schedule: Q01DX009 (ip), vehicle: saline) was 103 % of control. For the same molecule, the T/C (dose: 3.12 mg/kg/injection, schedule: Q04DX003 (ip), vehicle: saline) was 99 % of control, the T/C (dose: 3.12 mg/kg/injection, schedule: Q08DX002 (ip), vehicle: saline) was 111 % of control and the T/C (dose: 3.13 mg/kg/injection, schedule: Q01DX009 (ip), vehicle: saline) was 111 and 134 % of control [9 of 10 alive]. The T/C (dose: 3.13 mg/kg/injection, schedule: Q04DX009 (ip), vehicle: saline) was 104 % of control, the T/C (dose: 6.25 mg/kg/injection, schedule: Q01DX001 (ip), vehicle: saline) was 101 % of control and the T/C (dose: 6.25 mg/kg/injection, schedule: Q01DX009 (ip), vehicle: saline) was 107, 118, 179 % of control. The T/C (dose: 6.25 mg/kg/injection, schedule: Q04DX003 (ip), vehicle: saline) was 97 % of control, the T/C (dose: 6.25 mg/kg/injection, schedule: Q04DX009 (ip), vehicle: saline) was 101 % of control and the T/C (dose: 6.25 mg/kg/injection, schedule: Q08DX002 (ip), vehicle: saline) was 97 % of control. For the same molecule, the T/C (dose: 12.5 mg/kg/injection, schedule: Q01DX001 (ip), vehicle: saline) was 104 and 125 % of control, the T/C [1] was 106 and 117 % of control and the survivor count [1] was 8 of 10. For the same molecule, the T/C (dose: 12.5 mg/kg/injection, schedule: Q04DX003 (ip), vehicle: saline) was 107 and 155 % of control [9 of 10 alive], the T/C (dose: 12.5 mg/kg/injection, schedule: Q04DX009 (ip), vehicle: saline) was 112 % of control and the T/C (dose: 12.5 mg/kg/injection, schedule: Q08DX002 (ip), vehicle: saline) was 101 and 153 % of control. The T/C (dose: 25.0 mg/kg/injection, schedule: Q01DX001 (ip), vehicle: saline) was 106 and 132 % of control, the T/C (dose: 25.0 mg/kg/injection, schedule: Q01DX009 (ip), vehicle: saline with Tween-80) was 105 % of control and the T/C [2] was 107 % of control. The survivor count [2] was 9 of 10, the T/C (dose: 25.0 mg/kg/injection, schedule: Q04DX003 (ip), vehicle: saline) was 96 and 186 % of control and the T/C (dose: 25.0 mg/kg/injection, schedule: Q04DX009 (ip), vehicle: saline) was 104 % of control. The T/C (dose: 25.0 mg/kg/injection, schedule: Q08DX002 (ip), vehicle: saline) was 105 and 193 % of control, the T/C (dose: 50.0 mg/kg/injection, schedule: Q01DX001 (ip), vehicle: saline) was 102 and 157 % of control and the T/C (dose: 50.0 mg/kg/injection, schedule: Q01DX009 (ip), vehicle: saline with Tween-80) was 100 % of control. The T/C [3] was 111 % of control, the survivor count [3] was 5 of 10 and the T/C [4] was 112 % of control. The survivor count [4] was 9 of 10, the T/C (dose: 50.0 mg/kg/injection, schedule: Q04DX009 (ip), vehicle: saline) was 104 % of control and the T/C [5] was 105 % of control. The survivor count [5] was 10 of 10, the T/C [6] was 105 % of control and the survivor count [6] was 8 of 10. For the same molecule, the T/C (dose: 100.0 mg/kg/injection, schedule: Q01DX009 (ip), vehicle: saline with Tween-80) was 101 % of control, the T/C (dose: 100.0 mg/kg/injection, schedule: Q01DX009 (ip), vehicle: saline) was 99 % of control and the survivor count (dose: 100.0 mg/kg/injection, schedule: Q04DX003 (ip), vehicle: saline) was 3 of 10. The T/C (dose: 100.0 mg/kg/injection, schedule: Q04DX009 (ip), vehicle: saline) was 98 % of control [9 of 10 alive], the survivor count (dose: 100.0 mg/kg/injection, schedule: Q08DX002 (ip), vehicle: saline) was 5 of 10 and the survivor count (dose: 200.0 mg/kg/injection, schedule: Q01DX001 (ip), vehicle: saline) was 0 of 10. The T/C (dose: 200.0 mg/kg/injection, schedule: Q01DX009 (ip), vehicle: saline) was 119 % of control, the survivor count (dose: 200.0 mg/kg/injection, schedule: Q04DX003 (ip), vehicle: saline) was 1 of 10 and the T/C (dose: 200.0 mg/kg/injection, schedule: Q04DX009 (ip), vehicle: saline) was 111 % of control. The survivor count (dose: 200.0 mg/kg/injection, schedule: Q08DX002 (ip), vehicle: saline) was 2 of 10.
